# Source: patent US20220162684
# Test system: myoglobin
# Assay: binding assay
# Details: quantum dot probe; off-target control; purified native protein; protein details: biotinylated, immobilised on streptavidin plate; single-stranded DNA
sequence,measurement,value
CAAGCAGAAGACGGCATACGAGATCATGCTTCCCCAGGGAGATGGTTTGCCGGTGGGCAGGTTTAGGGTCTGCTCGGGATTGCGGAGGAACATGCGTCGCAAACGTGTAGATCTCGGTGGTCGCCGTATCATT [P7-B1-P5 aptamer],binding result,no binding

# For at least one entry, the source does not settle the construct or the ends of the probe. No signal at the amounts used counts as a negative.
